# PubChem BioAssay AID540256 (National Center for Advancing Translational Sciences (NCATS), 2011)
# About 3,700 (1.2%) of roughly 300,000 compounds were called active. This list was built around the results that the source calls inconclusive (neither active nor inactive); the mix of calls is not that of the screen. The call rests on the fitted dose curve; tested in HEK293 cells. Potencies of inconclusive entries are doubtful fits and often do not repeat.
# Assay: qHTS for Inhibitors of binding or entry into cells for Lassa Virus; further: nearly all actives have a fitted effect of over 50% in size
# Conditions: Lassa virus pseudotype entry inhibition, cell reporter; activity change, negative = inhibition: at 37.9 µM (top of the series) unless noted
# On the % scale 0 is the no-effect control and ±100 the full control effect; potency means the concentration at half of the fitted maximal effect.
SMILES,Potency,"activity change, negative = inhibition"
Cc1nc(N)[nH]c(=O)c1CCCNc1ccc(CCC2(CCl)OCCO2)cc1,"inconclusive: 3.55 µM [activator, single point]",
COc1cccc(-c2nc(S(=O)(=O)c3ccccc3)c(N3CCOCC3)o2)c1,"inconclusive: 29.1 µM [inhibitor, partial curve, poor fit]",
O=C(COC(=O)c1cccnc1Cl)NCCC1=CCCCC1,"inconclusive: 12.6 µM [inhibitor, single point]",
Cc1ccc(C2CC(=O)C=C(Nc3ccc(Cl)cc3)C2)cc1 (stereo not drawn),,inactive: 4.93%
O=C(CSc1nc(-c2ccccc2F)nc2cc(=O)[nH]n12)Nc1cccc(C(F)(F)F)c1,,inactive: 5.4% [at 46.1 µM]
Oc1c(Br)cc(Br)cc1CNc1ccccn1,,inactive: 7.32%
CC1(C)CC(=O)C2=C(C1)Nc1cc(C(=O)c3ccccc3)ccc1NC2c1ccccn1 (stereo not drawn),"inconclusive: 4.47 µM [inhibitor, partial curve]",
COc1ccccc1NC(=O)Cn1ccn(-c2cccc3ccccc23)c(=O)c1=O,,inactive: -19.6%
COc1ccc(-c2nn(-c3ccccc3)cc2/C=N/N=C(N)N)cc1OC,"inconclusive: 8.2 µM [inhibitor, single point]",
Cc1ccc(N2C(=O)N(CC(=O)N3CCCc4ccccc43)C(=O)C2C)cc1 (stereo not drawn),"inconclusive: 1.64 µM [inhibitor, partial curve, poor fit]",
C=CCOc1cccc(/C=N/NC(=O)CN(c2cc(Cl)ccc2OC)S(=O)(=O)c2ccc(C)c([N+](=O)[O-])c2)c1,"inconclusive: 8.91 µM [inhibitor, partial curve]",
Cc1cc(S(=O)(=O)Nc2nc(CN3CCOCC3)nc3sc4c(c23)CCC4)ccc1F,"inconclusive: 17.8 µM [inhibitor, partial curve, poor fit]",
COP(=O)(OC)C(Nc1ccc(C)cc1)c1ccc([N+](=O)[O-])cc1 (stereo not drawn),"inconclusive: 20 µM [activator, partial curve, poor fit]",
O=C(CCS(=O)(=O)c1ccc(Br)s1)N1CCc2ccccc21,,inactive: 0.0739%
NS(=O)(=O)c1ccc(NCc2cc(Cl)ccc2OCc2ccc(F)cc2)cc1,"inconclusive: 10 µM [inhibitor, partial curve]",
COc1ccc(OC)c(C(=O)COC(=O)c2ccccc2O)c1,,inactive: 22.3%
Cc1cnc(NC(=O)NCC2CCCC(CNC(=O)Nc3ncc(C)s3)C2)s1 (stereo not drawn),"inconclusive: 1.41 µM [inhibitor, full curve, poor fit]",
CC(=O)Nc1ccc(S(=O)(=O)Nc2ccc3nc(C)sc3c2)cc1,"inconclusive: 35.5 µM [inhibitor, partial curve, poor fit]",

# In another format: entries from further up
SMILES	Potency	activity change, negative = inhibition
Oc1c(Br)cc(Br)cc1CNc1ccccn1		inactive: 7.32%
NS(=O)(=O)c1ccc(NCc2cc(Cl)ccc2OCc2ccc(F)cc2)cc1	inconclusive: 10 µM [inhibitor, partial curve]	
